These results are taken from paper PMC10993572.

Amino acid sequences for entries named in this document (tags omitted). Residues count along the entry.
UniProt P05121, residues 24-402: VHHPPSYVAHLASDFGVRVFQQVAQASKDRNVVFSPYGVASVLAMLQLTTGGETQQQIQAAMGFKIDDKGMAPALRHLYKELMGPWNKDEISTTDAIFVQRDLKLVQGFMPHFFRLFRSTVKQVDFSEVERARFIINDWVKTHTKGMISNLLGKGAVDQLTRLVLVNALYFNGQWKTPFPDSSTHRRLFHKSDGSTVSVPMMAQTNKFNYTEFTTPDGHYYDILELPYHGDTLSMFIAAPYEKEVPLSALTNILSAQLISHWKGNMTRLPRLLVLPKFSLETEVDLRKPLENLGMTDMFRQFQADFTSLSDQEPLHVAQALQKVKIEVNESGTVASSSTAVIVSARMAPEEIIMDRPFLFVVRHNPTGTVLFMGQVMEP
UniProt Q04206: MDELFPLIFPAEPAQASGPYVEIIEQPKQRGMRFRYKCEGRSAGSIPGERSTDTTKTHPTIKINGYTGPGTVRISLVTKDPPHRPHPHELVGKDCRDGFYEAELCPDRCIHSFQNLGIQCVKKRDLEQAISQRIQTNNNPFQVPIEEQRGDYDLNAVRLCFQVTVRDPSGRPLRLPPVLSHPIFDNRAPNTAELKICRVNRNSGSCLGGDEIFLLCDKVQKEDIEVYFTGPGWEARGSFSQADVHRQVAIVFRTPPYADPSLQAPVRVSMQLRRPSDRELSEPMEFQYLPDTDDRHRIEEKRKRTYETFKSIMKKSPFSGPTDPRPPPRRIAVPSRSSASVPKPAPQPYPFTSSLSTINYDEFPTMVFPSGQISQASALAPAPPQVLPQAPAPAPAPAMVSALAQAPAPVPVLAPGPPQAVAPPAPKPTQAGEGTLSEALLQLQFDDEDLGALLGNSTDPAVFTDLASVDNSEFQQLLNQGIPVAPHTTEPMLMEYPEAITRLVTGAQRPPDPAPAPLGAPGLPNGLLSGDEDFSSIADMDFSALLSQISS

Results are given in words; binding and its absence hold for the method and conditions named. In cells and extracts the contact can be indirect. Some binding calls cover weakened binding; strength is not graded here.

Assay [1] concerns the target SERPINE1 (serpin family E member 1), endogenous in RKO cells (human (endogenous in RKO)) (UniProt P05121). Description: co-IP; endogenous proteins in RKO cell lysate; primary antibody overnight at 4 °C, Protein A/G magnetic beads, washed with PBST; western blot. A general note: A western blot detects proteins with antibodies after separation by electrophoresis.
Assay [2] has as its target GFP-SERPINE1 (serpin family E member 1 tagged with GFP) (UniProt P05121). Description: co-IP; exogenous proteins in transfected 293T cell lysate; primary antibody overnight at 4 °C, Protein A/G magnetic beads, washed with PBST; western blot.

Turning to “NF-κB p65, endogenous in RKO cells (from UniProt Q04206 1-551)”, in assay [1], the binding entry was “binds”.
In the case of p65-FLAG (from UniProt Q04206 1-551), the binding entry in assay [2] is given as “binds”.
